Assay results reported in PubChem BioAssay (EPA / NIEHS).
This list was built around the results that the source calls inconclusive (neither active nor inactive); the mix of calls is not that of the screen. For some assays here: Where the call is inconclusive, the potency comes from a doubtful curve fit. The source made the active and inactive calls. The calls were made as follows: active = hit-call score of the fitted dose curve at least 0.9, where 1 is the maximum; inconclusive = response in the unintended direction; inactive = score below 0.9.

Chains of the proteins cited; added tags and fusions are not shown. Lines headed by an entry give the natural chain unless they say otherwise; changes in a name come on top.
UniProt P03372, whole entry, looked up: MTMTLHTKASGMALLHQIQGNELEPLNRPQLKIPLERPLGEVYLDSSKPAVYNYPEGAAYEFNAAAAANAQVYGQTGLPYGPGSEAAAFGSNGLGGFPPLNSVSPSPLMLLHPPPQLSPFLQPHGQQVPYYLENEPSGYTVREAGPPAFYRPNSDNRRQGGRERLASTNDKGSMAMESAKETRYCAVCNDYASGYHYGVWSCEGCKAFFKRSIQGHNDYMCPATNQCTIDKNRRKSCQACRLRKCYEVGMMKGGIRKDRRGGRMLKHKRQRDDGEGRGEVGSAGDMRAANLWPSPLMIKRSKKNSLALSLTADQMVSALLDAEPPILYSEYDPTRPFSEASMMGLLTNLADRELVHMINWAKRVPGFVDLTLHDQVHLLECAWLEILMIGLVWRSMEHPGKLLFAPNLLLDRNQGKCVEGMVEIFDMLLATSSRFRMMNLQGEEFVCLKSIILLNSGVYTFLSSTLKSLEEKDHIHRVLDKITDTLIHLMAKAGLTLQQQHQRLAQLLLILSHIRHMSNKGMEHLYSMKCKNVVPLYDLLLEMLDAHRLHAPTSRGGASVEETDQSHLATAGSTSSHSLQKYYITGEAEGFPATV
UniProt Q92731, whole entry, looked up: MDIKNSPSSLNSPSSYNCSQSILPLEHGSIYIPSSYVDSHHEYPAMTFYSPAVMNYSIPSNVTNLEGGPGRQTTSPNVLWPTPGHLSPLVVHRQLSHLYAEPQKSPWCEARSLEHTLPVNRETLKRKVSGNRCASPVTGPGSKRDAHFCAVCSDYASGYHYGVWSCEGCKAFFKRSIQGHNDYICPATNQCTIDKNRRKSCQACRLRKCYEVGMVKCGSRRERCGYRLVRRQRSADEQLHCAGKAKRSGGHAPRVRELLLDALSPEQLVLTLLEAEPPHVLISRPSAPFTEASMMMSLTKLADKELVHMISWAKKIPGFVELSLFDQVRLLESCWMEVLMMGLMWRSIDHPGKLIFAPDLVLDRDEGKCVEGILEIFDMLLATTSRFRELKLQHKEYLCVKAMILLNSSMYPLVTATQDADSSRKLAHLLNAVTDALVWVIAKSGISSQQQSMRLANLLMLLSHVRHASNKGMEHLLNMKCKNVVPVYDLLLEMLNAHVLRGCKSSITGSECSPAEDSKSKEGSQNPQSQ
UniProt P10827: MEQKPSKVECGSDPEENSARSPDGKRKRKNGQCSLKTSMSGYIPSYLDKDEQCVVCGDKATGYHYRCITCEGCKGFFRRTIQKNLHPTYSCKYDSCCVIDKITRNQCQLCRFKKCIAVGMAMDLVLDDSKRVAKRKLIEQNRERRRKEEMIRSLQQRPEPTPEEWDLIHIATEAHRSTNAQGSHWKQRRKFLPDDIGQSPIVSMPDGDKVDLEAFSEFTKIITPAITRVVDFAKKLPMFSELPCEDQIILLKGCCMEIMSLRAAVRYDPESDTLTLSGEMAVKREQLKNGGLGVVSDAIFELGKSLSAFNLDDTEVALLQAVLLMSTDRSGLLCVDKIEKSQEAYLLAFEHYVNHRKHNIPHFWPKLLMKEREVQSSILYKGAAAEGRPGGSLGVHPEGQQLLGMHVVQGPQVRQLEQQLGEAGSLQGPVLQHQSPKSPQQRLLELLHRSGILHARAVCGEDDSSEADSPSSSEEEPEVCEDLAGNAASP
UniProt Q9UNQ0: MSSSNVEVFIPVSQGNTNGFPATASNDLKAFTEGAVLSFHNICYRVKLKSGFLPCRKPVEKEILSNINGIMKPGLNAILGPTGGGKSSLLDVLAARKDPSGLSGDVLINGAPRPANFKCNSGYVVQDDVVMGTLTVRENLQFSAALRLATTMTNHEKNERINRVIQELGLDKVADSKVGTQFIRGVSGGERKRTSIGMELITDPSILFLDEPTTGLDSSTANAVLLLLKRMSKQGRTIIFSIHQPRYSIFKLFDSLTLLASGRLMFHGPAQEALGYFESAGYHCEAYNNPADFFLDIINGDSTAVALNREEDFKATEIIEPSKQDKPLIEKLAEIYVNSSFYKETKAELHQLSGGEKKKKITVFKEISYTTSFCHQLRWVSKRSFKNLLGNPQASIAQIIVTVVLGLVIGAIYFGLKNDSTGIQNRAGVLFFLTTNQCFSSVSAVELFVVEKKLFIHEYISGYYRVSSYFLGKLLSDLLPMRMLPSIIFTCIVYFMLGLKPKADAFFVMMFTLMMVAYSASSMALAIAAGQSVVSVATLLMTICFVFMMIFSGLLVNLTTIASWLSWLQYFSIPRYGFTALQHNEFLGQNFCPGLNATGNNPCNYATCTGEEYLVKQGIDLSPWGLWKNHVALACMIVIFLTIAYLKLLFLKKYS
UniProt P37231: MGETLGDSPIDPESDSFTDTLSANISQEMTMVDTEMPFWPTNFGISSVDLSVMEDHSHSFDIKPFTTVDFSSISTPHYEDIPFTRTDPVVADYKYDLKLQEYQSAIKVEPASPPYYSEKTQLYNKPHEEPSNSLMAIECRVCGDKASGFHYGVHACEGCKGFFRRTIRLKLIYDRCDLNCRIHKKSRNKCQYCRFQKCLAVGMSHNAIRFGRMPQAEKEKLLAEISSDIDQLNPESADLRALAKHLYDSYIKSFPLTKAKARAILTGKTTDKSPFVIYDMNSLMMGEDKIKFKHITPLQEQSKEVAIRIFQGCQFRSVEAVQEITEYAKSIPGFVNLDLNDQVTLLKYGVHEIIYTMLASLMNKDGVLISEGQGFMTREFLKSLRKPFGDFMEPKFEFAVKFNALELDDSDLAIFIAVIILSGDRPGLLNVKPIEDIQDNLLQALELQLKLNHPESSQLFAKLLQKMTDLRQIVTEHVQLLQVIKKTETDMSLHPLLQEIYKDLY
UniProt P16257, whole entry, looked up: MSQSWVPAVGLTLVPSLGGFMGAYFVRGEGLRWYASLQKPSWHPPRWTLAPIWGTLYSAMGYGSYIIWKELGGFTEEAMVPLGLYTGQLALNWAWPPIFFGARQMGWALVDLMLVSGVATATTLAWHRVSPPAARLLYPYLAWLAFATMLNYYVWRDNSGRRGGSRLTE
UniProt P05979, whole entry, looked up: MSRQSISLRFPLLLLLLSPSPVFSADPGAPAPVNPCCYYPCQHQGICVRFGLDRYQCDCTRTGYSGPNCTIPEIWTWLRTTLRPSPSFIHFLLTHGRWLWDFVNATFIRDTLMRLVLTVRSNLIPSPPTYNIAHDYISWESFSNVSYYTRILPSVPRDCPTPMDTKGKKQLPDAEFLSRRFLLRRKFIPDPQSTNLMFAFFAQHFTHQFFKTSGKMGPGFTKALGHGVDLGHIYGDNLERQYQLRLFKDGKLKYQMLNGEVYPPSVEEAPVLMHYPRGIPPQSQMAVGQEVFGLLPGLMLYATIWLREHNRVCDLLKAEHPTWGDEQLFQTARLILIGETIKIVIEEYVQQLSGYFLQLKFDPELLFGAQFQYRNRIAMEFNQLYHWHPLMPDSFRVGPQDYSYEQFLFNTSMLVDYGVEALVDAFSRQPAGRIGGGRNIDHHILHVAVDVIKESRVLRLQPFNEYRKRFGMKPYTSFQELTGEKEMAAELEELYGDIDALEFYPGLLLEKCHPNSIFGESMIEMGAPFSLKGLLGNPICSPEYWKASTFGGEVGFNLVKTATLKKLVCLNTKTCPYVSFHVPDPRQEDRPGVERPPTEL
UniProt P31751: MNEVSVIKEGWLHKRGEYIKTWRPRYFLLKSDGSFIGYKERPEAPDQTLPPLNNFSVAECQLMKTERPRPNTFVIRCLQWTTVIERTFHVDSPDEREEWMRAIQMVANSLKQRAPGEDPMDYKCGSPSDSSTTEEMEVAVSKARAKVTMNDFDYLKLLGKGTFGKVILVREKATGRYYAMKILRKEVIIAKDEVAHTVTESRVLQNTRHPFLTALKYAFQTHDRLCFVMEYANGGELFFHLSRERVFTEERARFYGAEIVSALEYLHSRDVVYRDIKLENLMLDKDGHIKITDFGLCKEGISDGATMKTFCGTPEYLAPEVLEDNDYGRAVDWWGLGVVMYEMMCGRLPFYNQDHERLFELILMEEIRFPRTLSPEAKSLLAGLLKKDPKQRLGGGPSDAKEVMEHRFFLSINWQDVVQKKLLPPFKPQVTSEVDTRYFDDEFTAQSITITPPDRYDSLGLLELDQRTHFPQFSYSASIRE

Experiments:
[1] = target: Estrogen receptor (Homo sapiens) + Estrogen receptor beta (Homo sapiens) (UniProt P03372+Q92731); test: OT_ER_ERaERb_0480: Odyssey Thera (OT) 8-hour HEK293T Protein-Complementation Assay for Estrogen Receptor-alpha/-beta Heterodimer (AID 2283352)
In short: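 HEK293T cells expressing ER-alpha/ER-beta LBD fusions to complementary reporter fragments were dosed with compound for 8 hours. Heterodimer formation was read as increased nuclear (agonist) or nuclear plus cytoplasmic (antagonist) mean fluorescence intensity versus DMSO vehicle.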

[2] = read-out: xenobiotic metabolism (CYP2C9), CYP2C9 (gene 1559); test: CLD_CYP2C9_6hr: CellzDirect (CLD) Gene Expression Assay for xenobiotic metabolism (CYP2C9) at 6 hours (AID 2283664)
In short: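 Primary human hepatocytes dosed daily with test chemicals at multiple concentrations; harvested at 6 h. CYP2C9 mRNA induction measured by qNPA chemiluminescence. Gain of signal fitted against 0.2% DMSO vehicle; cytotoxicity annotated from phase-contrast morphology.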

[3] = read-out: xenobiotic metabolism (CYP1A2), CYP1A2 (gene 1544); test: CLD_CYP1A2_24hr: CellzDirect (CLD) Gene Expression Assay for xenobiotic metabolism (CYP1A2) at 24 hours (AID 2283683)
In short: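 Primary human hepatocytes from two donor preparations dosed daily with multiple concentrations of chemical, 0.2% DMSO vehicle. CYP1A2 mRNA at 24 h quantified by qNPA chemiluminescence; gain of signal analyzed relative to DMSO. Cytotoxicity flagged by phase-contrast morphology.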

[4] = target: human Thyroid Receptor Alpha (TRa), THRA (gene 7067) (UniProt P10827); test: NVS_NR_hTRa_Antagonist: NovaScreen (NVS) Nuclear Receptor Binding Assay for human Thyroid Receptor Alpha Antagonism (TRa) (AID 2283362);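 also: activity is loss of signal relative to DMSO baseline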
In short: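 Cell-free binding assay on extracted receptor protein, read 1 h after chemical dosing by AlphaLISA chemiluminescence; loss of signal relative to DMSO baseline marks antagonism. Primary screen ran in duplicate at 25 uM, with concentration series for actives.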

[5] = read-out: Broad substrate specificity ATP-binding cassette transporter ABCG2 (Homo sapiens) (UniProt Q9UNQ0); test: CLD_ABCG2_6hr: CellzDirect (CLD) Gene Expression Assay for ABC Transporter (ABCG2) at 6 hours (AID 2283660)
In short: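 Primary human hepatocytes dosed daily with chemicals at multiple concentrations (0.2% DMSO vehicle), harvested 6 h after dosing. ABCG2 mRNA induction read by quantitative nuclease protection assay (qNPA) chemiluminescence; gain of signal fitted against DMSO baseline.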

[6] = CLD_ACTIN_6hr: CellzDirect (CLD) Gene Expression Assay for Baseline Control (Actin) at 6 hours (AID 2283676);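 as to outcome: active means increased actin mRNA relative to DMSO vehicle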
In short: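 Primary human hepatocytes dosed with fresh chemical solutions (vehicle 0.2% DMSO), harvested at 6 h. Actin mRNA quantified by quantitative nuclease protection assay with chemiluminescent read-out, as background control relative to DMSO.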

[7] = read-out: ABC Transporter (ABCB1), ABCB1 (gene 5243); test: CLD_ABCB1_48hr: CellzDirect (CLD) Gene Expression Assay for ABC Transporter (ABCB1) at 48 hours (AID 2283695);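 as to AC50: potency for induction meaning increase of mRNA over DMSO vehicle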
In short: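 Primary human hepatocytes from two donor preparations dosed daily on two consecutive days with 0.2% DMSO vehicle. Harvest at 48 h. ABCB1 mRNA quantified by qNPA with chemiluminescence and fitted for gain of signal versus DMSO.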

[8] = read-out: sulfotransferase (SULT2A), SULT2A1 (gene 6822); test: CLD_SULT2A_48hr: CellzDirect (CLD) Gene Expression Assay for sulfotransferase (SULT2A) at 48 hours (AID 2283710);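 also: hits raise SULT2A1 transcript above the 0.2% DMSO vehicle baseline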
In short: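 Primary human hepatocytes (two donor preparations) dosed daily for two days with chemicals at multiple concentrations, vehicle 0.2% DMSO; SULT2A1 mRNA induction at 48 h by quantitative nuclease protection assay, chemiluminescent read-out, fitted for gain of signal versus DMSO.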

[9] = CCTE_Mundy_HCI_Cortical_NOG_NeuronCount: CCTE's Neurite Outgrowth Assay in rat cortical cells for Neuron Count, Mundy Lab (AID 2284236);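 also: neurons counted by imaging betaIII-tubulin and Hoechst stained cortical cells; cells exposed to compound for about 48 hours before fixation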
In short: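 Read-out: neuron number by high-content imaging of betaIII-tubulin (Alexa Fluor-488) and Hoechst-labelled rat primary cortical cells.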

[10] = CCTE_Mundy_HCI_hNP1_CellTiter: CCTE's Cell Titer-Glo 2 Assay in human neuroprogenitor cells for Viability, Mundy Lab (AID 2284241);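 as to AC50: a hit is a drop in ATP luminescence versus DMSO meaning reduced viability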
In short: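 Measures ATP content in human neural progenitors derived from WA09 embryonic cells. Read-out at 26.5 hours after dosing, with DMSO serving as the negative control and baseline.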

[11] = CCTE_Mundy_HCI_Cortical_Synap_Neur_Matur_NeuronCount: CCTE's Synaptogenesis and Neurite Maturation Assay in rat cortical cells for Neuron Count, Mundy Lab (AID 2284242);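 as to AC50: neuron number from Hoechst nuclei and MAP2 staining by high-content imaging; hits reduce neuron count versus DMSO baseline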
In short: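 Imaging-based neuron count in rat cortical cultures after chemical exposure from DIV 7 to DIV 12, with AraC added at DIV 5. Activity is fitted relative to DMSO.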

[12] = target: Peroxisome proliferator-activated receptor gamma (Homo sapiens) (UniProt P37231); test: NVS_NR_hPPARg: NovaScreen (NVS) Nuclear Receptor Binding Assay for human Peroxisome Proliferator-activated Receptor gamma (PPARg) (AID 2283370)
In short: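 Cell-free binding to extracted PPARg protein, read by fluorescence polarization 2 h after dosing; loss of signal relative to DMSO baseline marks displacement. Primary screen in duplicate at 25 uM, actives retested in concentration series.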

[13] = Tanguay_ZF_120hpf_JAW_legacy: (Legacy) Oregon State University Tanguay Lab 120 Hour Post-fertilization zebrafish Assay for Jaw Malformation (AID 2283638)
In short: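 Tropical 5D wild-type embryos, dechorionated with pronase at 4 hpf, were placed singly per well at 6 hpf and statically exposed at 28C until 120 hpf (0.64% DMSO final). Jaw malformation scored as present/absent by brightfield microscopy at 120 hpf, analyzed relative to DMSO.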

[14] = tested on: Sodium/Iodide Symporter (NIS), SLC5A5 (gene 6528); test: CPHEA_Stoker_NIS_Inhibition_RAIU: CPHEA's Radioactive Iodide Uptake (RAIU) Assay for Sodium/Iodide Symporter (NIS) Inhibition, Stoker and Laws Labs (AID 2283841)
In short: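 Test chemicals, six concentrations from 0.001 to 100uM in 0.5% DMSO, were co-incubated with carrier-free 125I (final 329pM) on hNIS-HEK293T-EPA monolayers in pH 7.4 HEPES-buffered HBSS. Plates stood 2 hours at room temperature, then were washed cold and counted.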

[15] = target: rat Peripheral-type Benzodiazepine Receptor (PBR), Tspo (gene 24230) (UniProt P16257); test: NVS_MP_rPBR: NovaScreen (NVS) Membrane Protein Assay for rat Peripheral-type Benzodiazepine Receptor (PBR) (AID 2283335)
In short: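 Radioligand displacement, rat kidney membrane prep, 1 h exposure, filter-based scintillation read; DMSO baseline, loss-of-signal scored. Primary screen at 25 uM in duplicate, actives followed up in concentration series.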

[16] = Tanguay_ZF_120hpf_EYE_legacy: (Legacy) Oregon State University Tanguay Lab 120 Hour Post-fertilization zebrafish Assay for Eye Malformation (AID 2283636);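 also: binary presence or absence of eye malformation scored by brightfield in 120 hpf larvae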
In short: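 Dechorionated wild-type Tropical 5D zebrafish embryos were exposed statically from 6 hpf, one per well, to 120 hpf at 28C in sealed, foil-covered plates with 0.64% DMSO. Eye malformation was scored present/absent by brightfield microscopy against DMSO controls.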

[17] = read-out: xenobiotic metabolism (CYP1A2), CYP1A2 (gene 1544); test: CLD_CYP1A2_6hr: CellzDirect (CLD) Gene Expression Assay for xenobiotic metabolism (CYP1A2) at 6 hours (AID 2283663);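 also: potency is for induction meaning a rise in mRNA above DMSO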
In short: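 Primary human hepatocytes from two donor preparations, dosed daily with multiple concentrations in 0.2% DMSO and harvested at 6 h. CYP1A2 mRNA induction measured by chemiluminescent qNPA, gain of signal fitted against DMSO; cytotoxicity flagged morphologically.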

[18] = target: sheep Cyclooxygenase-1 (Cox1), PTGS1 (gene 443551) (UniProt P05979); test: NVS_ENZ_oCOX1: NovaScreen (NVS) Enzymatic Assay for sheep Cyclooxygenase-1 (Cox1) (AID 2283239);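 also: actives reduce cyclooxygenase activity so potencies are for inhibitors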
In short: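 Cell-free colorimetric assay of enzyme activity in a native extract of ovine seminal vesicles. Absorbance was read 0.66 hour after compound addition. Loss of signal relative to the DMSO negative control was scored, with actives from the 25 uM duplicate primary screen retested in concentration series.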

[19] = target: human AKT serine/threonine Kinase 2 (AKT2), AKT2 (gene 208) (UniProt P31751); test: NVS_ENZ_hAKT2: NovaScreen (NVS) Enzymatic Assay for human AKT serine/threonine Kinase 2 (AKT2) (AID 2283141)
In short: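 Cell-free fluorescence/electrophoretic mobility shift readout of recombinant human AKT2 activity, 1 h after chemical dosing. Duplicate primary screen at 25 uM, then singleton concentration-response up to 50 uM; loss of signal versus DMSO baseline.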

For `CC1(C)CON(Cc2ccccc2Cl)C1=O`, which outcome [1] is on record?
The outcome was “inactive”.

What about the AC50 [2] of the same molecule?
The AC50 was inconclusive: 20 µM.

And the outcome [3]?
Its outcome is “inactive”.

With `CCOP(=S)(OCC)Oc1ccc([N+](=O)[O-])cc1` as the molecule, how does the outcome [4] read?
Its outcome is “inactive”.

What about the AC50 [5] of the same molecule?
Its AC50 is inconclusive: 20 µM.

What about the AC50 [2] of the same molecule?
The AC50 was inconclusive: 3.97 µM.

And the AC50 [6]?
Its AC50 is inconclusive: 7.52 µM.

And the AC50 [3]?
Its AC50 is active: 4.89 µM.

What about the AC50 [7] of the same molecule?
Its AC50 is inconclusive: 7.99 µM.

What about the AC50 [8] of the same molecule?
Its AC50 is active: 5.32 µM.

What about the AC50 [9] of the same molecule?
Its AC50 is inconclusive: 0.000558 µM.

And the AC50 [10]?
The AC50 was inconclusive: 0.00107 µM.

And the outcome [11]?
The outcome was “inactive”.

Which AC50 [12] does the source give for `CNC` here?
Its AC50 is inconclusive: 25 µM.

For `Fc1ccc(Oc2ccnc3cc(Cl)cc(Cl)c23)cc1`, which outcome [13] is on record?
Its outcome is “inactive”.

And the AC50 [6]?
The AC50 was inconclusive: 20 µM.

What about the AC50 [14] of the same molecule?
Its AC50 is active: 31.1 µM.

Which results are given for `O=C(O)COc1ccc(Cl)cc1Cl`?
AC50 [15]: inconclusive: 43.4 µM; AC50 [4]: inconclusive: 25 µM; AC50 [16]: inconclusive: 21.4 µM; outcome [6]: inactive; outcome [7]: inactive; AC50 [11]: inconclusive: 50 µM

Which AC50 [17] does the source give for `CCOP(=S)(OCC)Oc1ccc2c(C)c(Cl)c(=O)oc2c1` here?
The AC50 was inconclusive: 37.5 µM.

What about the outcome [2] of the same molecule?
The outcome was “inactive”.

What about the AC50 [6] of the same molecule?
The AC50 was inconclusive: 0.000387 µM.

What about the AC50 [3] of the same molecule?
Its AC50 is active: 0.527 µM.

And the outcome [7]?
The outcome was “inactive”.

And the outcome [9]?
Its outcome is “inactive”.

And the AC50 [10]?
The AC50 was active: 38.6 µM.

With `CCCCCCCCCCCC#N` as the molecule, how does the AC50 [18] read?
Its AC50 is inconclusive: 1.04 µM.

With `CCOC(=O)CC(SP(=O)(OC)OC)C(=O)OCC` (stereo unspecified) as the molecule, how does the AC50 [16] read?
The AC50 was active: 12.1 µM.

And the AC50 [5]?
Its AC50 is inconclusive: 20 µM.

And the AC50 [7]?
The AC50 was inconclusive: 20 µM.

And the AC50 [9]?
Its AC50 is inconclusive: 0.0001 µM.

What about the outcome [10] of the same molecule?
The outcome was “inactive”.

What about the AC50 [11] of the same molecule?
The AC50 was inconclusive: 0.00284 µM.

What does the source list for `CCCC(=NOCC)C1=C(O)CC(CC(C)SCC)CC1=O` (stereo unspecified)?
outcome [19]: inactive; AC50 [17]: inconclusive: 0.00361 µM; AC50 [2]: inconclusive: 3.97 µM; AC50 [3]: inconclusive: 0.000357 µM
